Measurements published in article PMC10275998.

These binders were tested against C-terminal segment of YFP (YC)-fused NIb of TuMV (turnip mosaic virus) (assay: split reporter; BiFC: YN- and YC-fused proteins co-expressed in N. benthamiana epidermal cells by agroinfiltration, confocal microscopy at 2 dpi).

Row | Binder | binding
1 | YN-fused Arabidopsis TCP3 (protein, UniProt Q9MAH8 1-391) MAPDNDHFLDSPSPPLLEMRHHQSATENGGGCGEIVEVQGGHIVRSTGRKDRHSKVCTAKGPRDRRVRLSAPTAIQFYDVQDRLGFDRPSKAVDWLITKAKSAIDDLAQLPPWNPADTLRQHAAAAANAKPRKTKTLISPPPPQPEETEHHRIGEEEDNESSFLPASMDSDSIADTIKSFFPVASTQQSYHHQPPSRGNTQNQDLLRLSLQSFQNGPPFPNQTEPALFSGQSNNQLAFDSSTASWEQSHQSPEFGKIQRLVSWNNVGAAESAGSTGGFVFASPSSLHPVYSQSQLLSQRGPLQSINTPMIRAWFDPHHHHHHHQQSMTTDDLHHHHPYHIPPGIHQSAIPGIAFASSGEFSGFRIPARFQGEQEEHGGDNKPSSASSDSRH | binds
2 | YN-fused Arabidopsis TCP4 (protein, UniProt Q8LPR5 1-420) MSDDQFHHPPPPSSMRHRSTSDAADGGCGEIVEVQGGHIVRSTGRKDRHSKVCTAKGPRDRRVRLSAHTAIQFYDVQDRLGFDRPSKAVDWLIKKAKTSIDELAELPPWNPADAIRLAAANAKPRRTTAKTQISPSPPPPQQQQQQQQLQFGVGFNGGGAEHPSNNESSFLPPSMDSDSIADTIKSFFPVIGSSTEAPSNHNLMHNYHHQHPPDLLSRTNSQNQDLRLSLQSFPDGPPSLLHHQHHHHTSASASEPTLFYGQSNPLGFDTSSWEQQSSEFGRIQRLVAWNSGGGGGATDTGNGGGFLFAPPTPSTTSFQPVLGQSQQLYSQRGPLQSSYSPMIRAWFDPHHHHQSISTDDLNHHHHLPPPVHQSAIPGIGFASGEFSSGFRIPARFQGQEEEQHDGLTHKPSSASSISRH | binds
3 | YN-fused Arabidopsis SPL4/FTM6 (protein, UniProt Q9S7A9 1-174) MEGKRSQGQGYMKKKSYLVEEDMETDTDEEEEVGRDRVRGSRGSINRGGSLRLCQVDRCTADMKEAKLYHRRHKVCEVHAKASSVFLSGLNQRFCQQCSRFHDLQEFDEAKRSCRRRLAGHNERRRKSSGESTYGEGSGRRGINGQVVMQNQERSRVEMTLPMPNSSFKRPQIR | binds
4 | YN-fused Arabidopsis ERF5 (protein, UniProt O80341 1-300) MATPNEVSALWFIEKHLLDEASPVATDPWMKHESSSATESSSDSSSIIFGSSSSSFAPIDFSESVCKPEIIDLDTPRSMEFLSIPFEFDSEVSVSDFDFKPSNQNQNQFEPELKSQIRKPPLKISLPAKTEWIQFAAENTKPEVTKPVSEEEKKHYRGVRQRPWGKFAAEIRDPNKRGSRVWLGTFDTAIEAARAYDEAAFRLRGSKAILNFPLEVGKWKPRADEGEKKRKRDDDEKVTVVEKVLKTEQSVDVNGGETFPFVTSNLTELCDWDLTGFLNFPLLSPLSPHPPFGYSQLTVV | binds
5 | YN-fused Arabidopsis CRF6 (protein, UniProt Q9M374 1-315) MERRTRRVKFTENRTVTNVAATPSNGSPRLVRITVTDPFATDSSSDDDDNNNVTVVPRVKRYVKEIRFCQGESSSSTAARKGKHKEEESVVVEDDVSTSVKPKKYRGVRQRPWGKFAAEIRDPSSRTRIWLGTFVTAEEAAIAYDRAAIHLKGPKALTNFLTPPTPTPVIDLQTVSACDYGRDSRQSLHSPTSVLRFNVNEETEHEIEAIELSPERKSTVIKEEEESSAGLVFPDPYLLPDLSLAGECFWDTEIAPDLLFLDEETKIQSTLLPNTEVSKQGENETEDFEFGLIDDFESSPWDVDHFFDHHHHSFD | binds

These are yes or no findings as the source states them, for the method shown. Binding seen in cells or lysates may run through a third protein. Binding calls can cover weak binding; strength is not graded here. Sequences can lack the tags named with a protein.
